{"source": "PubChem BioAssay AID1487", "about": "(National Center for Advancing Translational Sciences (NCATS), 2009)", "experiment": "qHTS Assay for Modulators of Lamin A Splicing", "settings": "HeLa LMNA splicing GFP/RFP minigene ratio, 48 h", "summary_of_the_method": "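Read-out is the ratio of GFP to DsRed2 object intensity, acquired by 488 nm laser-scanning cytometry on HeLa lamin A-EGFP minigene reporter cells. Compound incubation 48 hrs at 37 °C in Opti-MEM with 2% FBS; DMSO 0.5% final.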", "key": {"[1]": {"settings": "measured here: RFP viability control channel"}, "[2]": {"settings": "measured here: GFP splicing reporter channel"}}, "note": "Some of the results follow. Further columns of the screen follow, without active or inactive calls. Most of these compounds were active or inconclusive in the main read-out, so they are no random draw. Words in brackets tell the shape of the fitted curve; partial curves, single points and poor fits give uncertain potencies."}
{"molecule": "COc1ccc2c(c1)O[C@@H](c1cccc(C(F)(F)F)c1)[C@H](OC(=O)NCCc1ccc(OC)c(OC)c1)C2=O", "values": [{"measurement": "AC50", "setting": "[1]", "result": "12.6 µM [rising, partial curve]"}]}
{"molecule": "C[C@](N)(Cc1ccc(O)cc1)C(=O)O", "values": [{"measurement": "AC50", "setting": "[2]", "result": "8.91 µM [falling, partial curve, poor fit]"}]}
{"molecule": "COc1ccccc1-c1nnc(NC(=O)CSc2nncn2C)s1", "values": [{"measurement": "AC50", "setting": "[1]", "result": "0.794 µM [rising, partial curve, poor fit]"}]}
{"molecule": "Cc1sc2nc(CN3CCCC3)nc(Cl)c2c1C", "values": [{"measurement": "AC50", "setting": "[1]", "result": "12.6 µM [rising, single point]"}]}
{"molecule": "CCOc1ccc(C(=O)c2ccccc2C(=O)O)cc1OCC", "values": [{"measurement": "AC50", "setting": "[2]", "result": "0.00355 µM [falling, full curve, poor fit]"}, {"measurement": "AC50", "setting": "[1]", "result": "0.00447 µM [falling, full curve, poor fit]"}]}
{"molecule": "COc1ccc(Oc2ccc(N/C=C3/CCCC3=O)cc2)cc1", "values": [{"measurement": "AC50", "setting": "[1]", "result": "1 µM [rising, partial curve, poor fit]"}]}
{"molecule": "COc1ccc(CCc2nnc(CCC(=O)NCc3cnn(-c4ccccc4C)c3)o2)cc1", "values": [{"measurement": "AC50", "setting": "[2]", "result": "2.24 µM [falling, single point]"}, {"measurement": "AC50", "setting": "[1]", "result": "3.98 µM [falling, partial curve]"}]}
{"molecule": "Cc1ccc2nnnc(-c3ccccc3)c2c1", "values": [{"measurement": "AC50", "setting": "[1]", "result": "5.01 µM [rising, partial curve, poor fit]"}]}
{"molecule": "O=S(=O)(c1ccc(Oc2ccc(S(=O)(=O)N3CCOCC3)cc2)cc1)N1CCOCC1", "values": [{"measurement": "AC50", "setting": "[1]", "result": "15.8 µM [rising, partial curve]"}]}
{"molecule": "O=C(CN(C(=O)Cn1nnc(-c2cccs2)n1)c1ccc2c(c1)OCCO2)NCc1ccccc1", "values": [{"measurement": "AC50", "setting": "[1]", "result": "0.398 µM [rising, full curve, poor fit]"}]}
{"molecule": "O=c1cc(-c2ccc(O)cc2)oc2cc(O[C@@H]3O[C@H](CO)[C@@H](O)[C@H](O)[C@H]3O[C@@H]3OC[C@](O)(CO)[C@H]3O)cc(O)c12", "values": [{"measurement": "AC50", "setting": "[2]", "result": "0.0316 µM [falling, full curve, poor fit]"}]}
{"molecule": "CCOc1ccc(NC(=O)C(=O)NCCc2csc(-c3ccc(C(F)(F)F)cc3)n2)cc1", "values": [{"measurement": "AC50", "setting": "[1]", "result": "0.0447 µM [falling, full curve, poor fit]"}]}
{"molecule": "CCCCNC(=O)CCC(=O)Nc1ccc2nc(N3CCCCC3)cc(C)c2c1", "values": [{"measurement": "AC50", "setting": "[2]", "result": "10 µM [falling, partial curve]"}]}
{"molecule": "COc1cc(C2C(C#N)=C(N)Oc3c2ccc2ccccc32)ccc1OCC(=O)Nc1cccc(C)c1", "note": "(stereo unspecified)", "values": [{"measurement": "AC50", "setting": "[2]", "result": "7.94 µM [falling, partial curve, poor fit]"}]}
{"molecule": "Fc1ccc(-c2ccnc3nc(-n4cccc4)nn23)cc1", "values": [{"measurement": "AC50", "setting": "[2]", "result": "35.5 µM [rising, single point]"}]}
{"molecule": "O=C(Cc1cccs1)Nc1nc(-c2ccccc2)cs1", "values": [{"measurement": "AC50", "setting": "[1]", "result": "14.1 µM [rising, single point]"}]}
{"molecule": "COc1ccc(OC)c(C2/C(=C(/O)c3cnn(-c4ccccc4)c3C)C(=O)C(=O)N2CCN(C)C)c1", "note": "(stereo unspecified)", "values": [{"measurement": "AC50", "setting": "[1]", "result": "12.6 µM [rising, partial curve]"}]}
{"molecule": "CCN(CC)S(=O)(=O)c1ccc2c(c1)[nH]c(=S)n2CC", "values": [{"measurement": "AC50", "setting": "[2]", "result": "0.00891 µM [falling, full curve, poor fit]"}]}
{"molecule": "COC(=O)c1c[nH]n2c(=O)c(C(C)C)c(C)nc12", "values": [{"measurement": "AC50", "setting": "[1]", "result": "1 µM [falling, full curve]"}]}
{"molecule": "O=C(OCc1nc2ccccc2s1)c1ccco1", "values": [{"measurement": "AC50", "setting": "[2]", "result": "3.98 µM [falling, partial curve]"}, {"measurement": "AC50", "setting": "[1]", "result": "3.98 µM [falling, partial curve, poor fit]"}]}
{"molecule": "COc1ccccc1CNC(=O)c1c(N)n(CCCN2CCOCC2)c2nc3ccccc3nc12", "values": [{"measurement": "AC50", "setting": "[2]", "result": "25.1 µM [falling, single point]"}, {"measurement": "AC50", "setting": "[1]", "result": "22.4 µM [falling, partial curve]"}]}
{"molecule": "O=S(=O)(c1ccccc1)c1nc(NCc2ccccc2)sc1Cl", "values": [{"measurement": "AC50", "setting": "[2]", "result": "7.08 µM [rising, partial curve, poor fit]"}, {"measurement": "AC50", "setting": "[1]", "result": "20 µM [rising, partial curve]"}]}
{"molecule": "Cc1cc(=O)[nH]c(SCC(=O)C23CC4CC(CC(C4)C2)C3)c1C#N", "values": [{"measurement": "AC50", "setting": "[1]", "result": "11.2 µM [rising, partial curve]"}]}
{"molecule": "O=C(COc1ccc(Cl)cc1)Nc1nnc(S(=O)(=O)N2CCCCCC2)s1", "values": [{"measurement": "AC50", "setting": "[2]", "result": "4.47 µM [falling, full curve]"}]}
{"molecule": "Cc1ccccc1-c1cc(-n2ccnc2)ncn1", "values": [{"measurement": "AC50", "setting": "[2]", "result": "11.2 µM [rising, partial curve]"}, {"measurement": "AC50", "setting": "[1]", "result": "11.2 µM [rising, partial curve]"}]}
{"molecule": "O=C(NCCc1csc(-c2ccc(C(F)(F)F)cc2)n1)c1cccs1", "values": [{"measurement": "AC50", "setting": "[2]", "result": "14.1 µM [rising, partial curve]"}, {"measurement": "AC50", "setting": "[1]", "result": "14.1 µM [rising, partial curve]"}]}
{"molecule": "COc1ccccc1N1CCN(C(CNC(=O)C(=O)NCc2cccnc2)c2cccnc2)CC1", "note": "(stereo unspecified)", "values": [{"measurement": "AC50", "setting": "[2]", "result": "22.4 µM [falling, partial curve, poor fit]"}, {"measurement": "AC50", "setting": "[1]", "result": "35.5 µM [falling, partial curve, poor fit]"}]}
{"molecule": "CC(C)Cc1nn2c(=O)cc(COC(=O)c3ccc(NC(=O)C4CCCCC4)cc3)nc2s1", "values": [{"measurement": "AC50", "setting": "[1]", "result": "1.78 µM [falling, partial curve]"}]}
{"molecule": "CSc1ncccc1C(=O)Nc1nc2ccc(Oc3ccccc3)cc2s1", "values": [{"measurement": "AC50", "setting": "[1]", "result": "7.08 µM [rising, single point]"}]}
{"molecule": "O=C(NCc1nnc(SCC(=O)N2CCC(Cc3ccccc3)CC2)o1)c1ccccc1F", "values": [{"measurement": "AC50", "setting": "[2]", "result": "35.5 µM [rising, single point]"}, {"measurement": "AC50", "setting": "[1]", "result": "35.5 µM [rising, single point]"}]}
{"molecule": "COc1cc(NC(=O)COC(=O)c2n[nH]c3ccccc23)c(C)cc1[N+](=O)[O-]", "values": [{"measurement": "AC50", "setting": "[1]", "result": "35.5 µM [rising, single point]"}]}
{"molecule": "CC1CCCN(c2nc3c(c(=O)n(C)c(=O)n3C)n2Cc2ccccc2)C1", "note": "(stereo unspecified)", "values": [{"measurement": "AC50", "setting": "[2]", "result": "7.08 µM [rising, partial curve]"}, {"measurement": "AC50", "setting": "[1]", "result": "0.251 µM [rising, full curve, poor fit]"}]}
{"molecule": "CCn1c(O)c(C=NC2CCCC(C)C2C)sc1=S", "note": "(stereo unspecified)", "values": [{"measurement": "AC50", "setting": "[2]", "result": "35.5 µM [rising, partial curve, poor fit]"}, {"measurement": "AC50", "setting": "[1]", "result": "35.5 µM [rising, partial curve]"}]}
{"molecule": "CCCN1C(=O)/C(=C/c2ccc(C)o2)SC1=Nc1ccc(OC)cc1", "values": [{"measurement": "AC50", "setting": "[2]", "result": "35.5 µM [falling, single point]"}, {"measurement": "AC50", "setting": "[1]", "result": "35.5 µM [falling, single point]"}]}
